This test relates to AKR/Lw mice, AKR lymphoma ip, median survival T/C. In words: NCI In Vivo Anticancer Drug Screen. Data for tumor model Lymphoma AKR (Transplanted) (intraperitoneal) in AKR/Lw mice. As to conditions: T/C endpoint: median survival time, higher T/C = longer survival. How it is done: The antitumor activity of compounds was measured in mice bearing transplantable tumors. Survival or tumor size were measured and the results are expressed as the measurement made in the treated group (T) divided by the measurement made in the vehicle treated control group (C). The tumor model used in this assay is Lymphoma AKR (Transplanted) (intraperitoneal) in AKR/Lw mice

The mark [1] stands for this setting: dose: 300.0 mg/kg/injection, schedule: Q04DX003 (ip), vehicle: saline.
Where [2] appears, read: dose: 20.0 mg/kg/injection, schedule: Q01DX009 (ip), vehicle: saline.
The mark [3] stands for this setting: dose: 30.0 mg/kg/injection, schedule: Q01DX009 (ip), vehicle: saline.
Where [4] appears, read: dose: 30.0 mg/kg/injection, schedule: Q04DX003 (ip), vehicle: saline.
Where [5] appears, read: dose: 35.0 mg/kg/injection, schedule: Q01DX009 (ip), vehicle: saline.
The mark [6] stands for this setting: dose: 50.0 mg/kg/injection, schedule: Q01DX009 (ip), vehicle: saline.
Where [7] appears, read: dose: 50.0 mg/kg/injection, schedule: Q04DX003 (ip), vehicle: saline.
The mark [8] stands for this setting: dose: 100.0 mg/kg/injection, schedule: Q01DX009 (ip), vehicle: saline.
The mark [9] stands for this setting: dose: 300.0 mg/kg/injection, schedule: Q01DX001 (ip), vehicle: saline.
Where [10] appears, read: dose: 500.0 mg/kg/injection, schedule: Q01DX001 (ip), vehicle: saline.
The mark [11] stands for this setting: dose: 600.0 mg/kg/injection, schedule: Q01DX001 (ip), vehicle: saline.

The list is a part of this screen's results and no random one: it gathers tests that were run many times, whatever their T/C, doses with no T/C, and many T/C values between a quarter and a half above the control. Further doses and runs are listed elsewhere. T/C: endpoint of the treated group in % of that of the vehicle group. Some doses have a count of surviving animals in place of a T/C: the source holds a T/C of zero for them, seemingly a mark for toxic or unscored doses. Some survivor counts are full or nearly so, which does not show that the dose was tolerated: survival well below the control is almost never listed, so the zero probably covers shortened survival too. Counts of survivors are from the toxicity check (mostly the fifth day) where no day follows; animals may have died later. Schedule codes are those of the source, taken here to give the interval after Q, in days (D) or hours (H), and the number of doses after X. Some doses were run more than once; their values stand side by side, smallest first. For survival time, the PubChem record calls one and a half times the control and up active, and a quarter to a half above the control has no call in these data; cut-offs in other NCI protocols can differ. Some T/C values are followed by the survivors on the day toxicity was checked, most often the fifth; without a count, all were alive then. Counts like (3×) say how often a value occurs here.

`c1cc2cc3c(cc2c2c1CC1c4cc5c(cc4CCN1C2)OCO5)OCO3` (centres undefined): the survivor count (dose: 400.0 mg/kg/injection, schedule: Q01DX001 (ip), vehicle: Klucel (hydroxypropylcellulose) (HPC)) is reported as 10 of 10.
As to `COc1cc2c(cc1OC)[C@H]1CNC[C@H]1[C@@H](c1ccccc1)C2`, the survivor count under setting [1] is on record as 6 of 10.
Take `O=c1[nH]c(=O)n(C2CC(O)C(CO)O2)cc1F` (centres undefined): the survivor count reads like this: (dose: 5.0 mg/kg/injection, schedule: Q01DX009 (ip), vehicle: saline) 10 of 10; (dose: 6.2 mg/kg/injection, schedule: Q04DX003 (ip), vehicle: saline) 10 of 10; (dose: 10.0 mg/kg/injection, schedule: Q01DX009 (ip), vehicle: saline) 10 of 10; (dose: 15.0 mg/kg/injection, schedule: Q04DX003 (ip), vehicle: saline) 10 of 10; under setting [2], 9 of 10; under setting [3], 10 of 10. Also, the survivor count by setting is: under setting [4], 9 of 10 and 10 of 10; under setting [5], 9 of 10; under setting [6], 10 of 10; (dose: 50.0 mg/kg/injection, schedule: Q01DX010 (ip), vehicle: saline) 9 of 10; under setting [7], 9 of 10 and 10 of 10; (dose: 60.0 mg/kg/injection, schedule: Q01DX009 (ip), vehicle: saline) 10 of 10. For the same molecule, the survivor count reads like this: (dose: 60.0 mg/kg/injection, schedule: Q04DX003 (ip), vehicle: saline) 10 of 10; (dose: 75.0 mg/kg/injection, schedule: Q01DX009 (ip), vehicle: saline) 10 of 10; (dose: 75.0 mg/kg/injection, schedule: Q01DX010 (ip), vehicle: saline) 10 of 10; (dose: 75.0 mg/kg/injection, schedule: Q01DX015 (ip), vehicle: saline) 10 of 10; under setting [8], 10 of 10; (dose: 100.0 mg/kg/injection, schedule: Q01DX015 (ip), vehicle: saline) 10 of 10. Besides, the survivor count runs as follows: (dose: 200.0 mg/kg/injection, schedule: Q01DX009 (ip), vehicle: saline) 10 of 10; under setting [9], 10 of 10; under setting [1], 10 of 10; (dose: 400.0 mg/kg/injection, schedule: Q04DX003 (ip), vehicle: saline) 10 of 10; under setting [10], 9 of 10; under setting [11], 10 of 10. In addition, the T/C runs as follows: (dose: 12.5 mg/kg/injection, schedule: Q01DX010 (ip), vehicle: saline) 135 % of control; (dose: 15.0 mg/kg/injection, schedule: Q01DX009 (ip), vehicle: saline) 125 % of control; under setting [2], 86, 110 [8 of 10 alive], 121 % of control; (dose: 25.0 mg/kg/injection, schedule: Q01DX009 (ip), vehicle: saline) 100, 106, 108 [9 of 10 alive], 131, 137 % of control; (dose: 25.0 mg/kg/injection, schedule: Q01DX010 (ip), vehicle: saline) 129 % of control; (dose: 25.0 mg/kg/injection, schedule: Q01DX015 (ip), vehicle: saline) 139 % of control. The T/C was 132 % of control (dose: 25.0 mg/kg/injection, schedule: Q04DX003 (ip), vehicle: saline); 125 and 131 % of control under setting [3]; 92, 97, 100, 118 % of control under setting [4]; 143 % of control under setting [5]; 113, 115, 116 [9 of 10 alive], 130, 150 % of control under setting [6]; 103 and 104 % of control under setting [7]. Also, the T/C was 94, 104, 107, 127 % of control (dose: 60.0 mg/kg/injection, schedule: Q04DX003 (ip), vehicle: saline, evaluated on day 45); 86 % of control (dose: 60.0 mg/kg/injection, schedule: Q04DX003 (ip), vehicle: saline, evaluated on day 60); 86 (2×) and 123 % of control under setting [8]; 100, 105, 111, 117 % of control (dose: 120.0 mg/kg/injection, schedule: Q04DX003 (ip), vehicle: saline, evaluated on day 45); 86 and 107 % of control (dose: 120.0 mg/kg/injection, schedule: Q04DX003 (ip), vehicle: saline, evaluated on day 60); 100, 115, 117, 129 % of control (dose: 200.0 mg/kg/injection, schedule: Q04DX003 (ip), vehicle: saline). Moreover, the T/C by setting is: (dose: 240.0 mg/kg/injection, schedule: Q01DX001 (ip), vehicle: saline) 133 % of control; under setting [9], 112, 128, 141 % of control; (dose: 400.0 mg/kg/injection, schedule: Q01DX001 (ip), vehicle: saline) 127, 130, 136, 148 % of control; under setting [10], 129 % of control; under setting [11], 118 [9 of 10 alive], 131, 150 % of control.
